Earlier results as cited in publication PMC9124651, “High-performance thin-layer chromatography in combination with an acetylcholinesterase-inhibition bioassay with pre-oxidation of organothiophosphates to determine neurotoxic effects in storm, waste, and surface water” (Analytical and Bioanalytical Chemistry, 2022).
Some compounds share one range, which may span the group rather than tell each member.

Test system: esterase
Settings: apple juice and tap water samples; HPTLC multi-enzyme inhibition assay with prior oxidation; cited from earlier work

Structure (SMILES)	Recoveries
CCOP(=S)(OCC)Oc1nc(Cl)c(Cl)cc1Cl [Chlorpyrifos, chlorpyrifos]	91–106%
CCOP(=O)(OCC)Oc1ccc([N+](=O)[O-])cc1 [Paraoxon, paraoxon]	91–106%
CCOP(=S)(OCC)Oc1ccc([N+](=O)[O-])cc1 [Parathion, parathion]	91–106%
